Source: PubChem BioAssay AID1259354 (Paczesny and Yang Labs, IUPUI and University of Michigan, 2018)
Where “and” joins values, the source holds several entries; their conditions need not be identical. Equal entries are not always repeated. Hit rate of the full screen: of about 78,000 compounds, about 1,800 (2.3%) were called active. Inconclusive means that the source gave no clear call. Such entries were picked first, then a sample of the others. Cut-off read from the data, not from the text of the source: active = inhibition above about 30%; inconclusive = mostly about 10% to 28%; inactive = weaker than that.

Chains of the proteins cited; added tags and fusions are not shown. Lines headed by an entry give the natural chain unless they say otherwise; changes in a name come on top.
UniProt Q01638: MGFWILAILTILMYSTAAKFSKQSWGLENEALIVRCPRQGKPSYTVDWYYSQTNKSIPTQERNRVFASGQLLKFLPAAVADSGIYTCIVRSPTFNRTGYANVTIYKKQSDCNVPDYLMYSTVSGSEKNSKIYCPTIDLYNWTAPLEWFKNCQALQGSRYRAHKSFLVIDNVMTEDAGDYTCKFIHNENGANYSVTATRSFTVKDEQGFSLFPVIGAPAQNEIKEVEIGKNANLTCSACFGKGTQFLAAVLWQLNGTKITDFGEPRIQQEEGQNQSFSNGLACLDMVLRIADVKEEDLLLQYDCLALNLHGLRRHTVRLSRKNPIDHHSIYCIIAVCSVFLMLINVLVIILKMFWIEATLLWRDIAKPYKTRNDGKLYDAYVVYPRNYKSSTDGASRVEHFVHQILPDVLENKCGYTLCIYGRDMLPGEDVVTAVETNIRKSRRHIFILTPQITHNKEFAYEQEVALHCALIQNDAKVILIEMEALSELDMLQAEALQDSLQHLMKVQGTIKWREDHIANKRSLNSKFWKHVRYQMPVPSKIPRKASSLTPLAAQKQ

molecular target: Interleukin-1 receptor-like 1 (Homo sapiens) (UniProt Q01638); assay: blocks human ST2 binding to IL-33, primary screen, biochemical, AlphaLISA (AID 1259354); conditions: AlphaLISA ST2-Fc/biotin-IL-33 interaction, 1 h; at 17 µM, stronger effect = higher value

Row | Compound | inhibition
1 | O=C1CCCC2=C1C(c1ccc(O)cc1)c1c(nc(SCc3ccccc3F)[nH]c1=O)N2 (stereo not given) | inconclusive: 14%
2 | Cc1ccc(C2(CN3CCC(n4nc(C)cc4C)C3)CCNCC2)nc1 (stereo not given) | inconclusive: 21%
3 | Cn1c(=O)c2c(nc(NCCO)n2Cc2ccccc2Cl)n(C)c1=O | inconclusive: 15%
4 | CO[C@H]1CN(C(=O)c2cc(C)c[nH]2)CC[C@H]1N | inconclusive: 22%
5 | O=C(O[C@@H]1Cc2c(O)cc(O)cc2O[C@@H]1c1cc(O)c(O)c(O)c1)c1cc(O)c(O)c(O)c1 | active: 31%
6 | Cn1cnc2c(cnn2-c2ccc(Cl)cc2)c1=O | inconclusive: 13%
7 | Cc1cccc2cc(C(=O)N3CCOC(c4ccc(Cl)cc4)C3)oc12 (stereo not given) | inactive
8 | CCC(Cc1ccccc1)NC(=O)c1ccc(OC)c(OC)c1 (stereo not given) | inactive
9 | COc1cc(/C=C2\C(=O)Nc3ccc(Br)cc32)cc(Br)c1O | inactive
10 | CSc1nc2n(n1)C(c1ccc([N+](=O)[O-])cc1)C1=C(CC(C)(C)CC1=O)N2 (stereo not given) | inactive
11 | COc1ccc(O)c(C=Nc2ccc(S(N)(=O)=O)cc2)c1 | inconclusive: 16%
12 | O=C(Nc1ccccc1)O[C@@H]1CO[C@H]2[C@@H]1OC[C@@H]2NC(=O)C1CC1 | inconclusive: 17%
13 | NC(=O)c1c(NC(=O)Cc2ccc(Cl)cc2)sc2c1CCC2 | inactive
14 | Cc1nc(SCCNc2nncc(-c3cccc4ccccc34)n2)n[nH]1 | inconclusive: 14%
15 | CC(NC(=O)c1ccc(N)cc1)C12CC3CC(CC(C3)C1)C2 (stereo not given) | inactive
16 | OC(c1ccc2c(c1)OCO2)c1cccs1 (stereo not given) | inconclusive: 15%
17 | Cn1c2c(c(=O)n(C)c1=O)C(c1ccc(Cl)cc1)C1=C(N2)c2ccccc2C1=O (stereo not given) | inconclusive: 24%
18 | Cc1ccc(S(=O)(=O)C(C)(C)C)s1 | inactive
19 | Cc1ccc2occ(C(=O)c3ccccc3)c(=O)c2c1 | inconclusive: 22%
20 | O=C(O)C1(CC2CCCCO2)CCN(c2noc(-c3ccccc3)n2)CC1 (stereo not given) | inactive
21 | COC(=O)c1c(NC(=O)C(C)(C)C)sc2c1CCC(C)C2 (stereo not given) | inactive
22 | Cn1ccnc1SCC(=O)Nc1ncc(Br)cc1Br | inconclusive: 18%
23 | Cc1cc(C(=O)N2CC(c3ccccn3)C2)sc1-c1ccccc1 | inactive
24 | O=c1onc2n1-c1cc(Br)ccc1OC2 | inconclusive: 14%

Row | Compound | inhibition
25 | Cc1ccc(NC2(C(=O)N3CCNC(=O)C3CCO)CCCC2)cc1 (stereo not given) | inconclusive: 10%
26 | Cn1c(=O)c2c(SCC(=O)NCCc3ccccc3)nc(-c3ccc(F)cc3)nc2n(C)c1=O | inactive
27 | O=C1c2ccccc2C(=O)c2c1ccc1c(=O)n(Cc3ccccc3)[nH]c21 | inconclusive: 14%
28 | O=[N+]([O-])c1cccc(CN2CCCCCC2)c1 | inactive
29 | Cc1nnc([C@H]2CCN(Cc3ccc(N(C)C)cc3)C2)o1 | inconclusive: 10%
30 | Cc1ccccc1Cn1cc(C(=O)NC(C)Cc2ccsc2)nn1 (stereo not given) | inconclusive: 10%
31 | Cc1nc(N=C(N)NC(=O)COc2ccc(Cl)cc2)nc2ccccc12 | inconclusive: 20%
32 | COc1ccc(Br)cc1C1CC(=O)Nc2c1cc(Br)c1ccccc21 (stereo not given) | inactive
33 | O=C(COc1ccc([N+](=O)[O-])cc1)Nc1ccc(N2CCCC2)cc1 | active: 60%
34 | CSC(C)C(=O)NCc1cccnc1Oc1c(C)cccc1C (stereo not given) | inactive
35 | Cc1ccc([N+](=O)[O-])cc1S(=O)(=O)n1cnc2ccccc21 | inconclusive: 22%
36 | Cc1cccc(C2=N/C(=C\c3cccc([N+](=O)[O-])c3)C(=O)O2)c1 | inactive
37 | COc1cc(/C=C/c2ccc3cccc(O)c3n2)cc(Cl)c1OC | active: 34%
38 | O=C(CC1(O)C(=O)Nc2ccc(Br)cc21)c1ccc2c(c1)CCCC2 (stereo not given) | inconclusive: 10%
39 | COc1ccc(Nc2cc(C)nc(Nc3ccc(NC(=O)Cc4ccccc4)cc3)n2)cc1 | inconclusive: 14%
40 | COc1cc2c(cc1OC)C(C(=O)NCC1CCCO1)C(c1cccs1)N(C)C2=O (stereo not given) | inactive
41 | FC(F)(F)c1cc(-c2ccccc2)nc(NC2CCCC2)n1 | inconclusive: 10%
42 | O=C(Cn1cnc2c(oc3ccccc32)c1=O)Nc1ccc(F)cc1F | inconclusive: 10%
43 | CCOC(=O)c1c(C)[nH]c(C(=O)CSc2nc(C)nc3sc4c(c23)CCC4)c1C | inactive
44 | CC(=O)Nc1ccc(CN2CCN(Cc3cccc(C)n3)C(CCO)C2)cc1 (stereo not given) | inactive
45 | COC(=O)c1cccc(C(=O)NC(C)c2ccc(O)c(F)c2)c1 (stereo not given) | inconclusive: 23%
46 | Cc1cc(N(C)C)nc(Nc2ccc(NC(=O)c3ccccc3I)cc2)n1 | inconclusive: 16%
47 | COc1ccc2cc3cc(C(=O)Nc4ccc(OC)c(Cl)c4)oc3nc2c1 | active: 31%
48 | Cc1ccc(-n2ncc3c2CC(C)(C)CC3NC(=O)CCc2ccco2)cc1 (stereo not given) | inconclusive: 26%

Gathered by group: the entries above with a Cl atom (8)
Row | Compound | inhibition
3 | Cn1c(=O)c2c(nc(NCCO)n2Cc2ccccc2Cl)n(C)c1=O | inconclusive: 15%
6 | Cn1cnc2c(cnn2-c2ccc(Cl)cc2)c1=O | inconclusive: 13%
7 | Cc1cccc2cc(C(=O)N3CCOC(c4ccc(Cl)cc4)C3)oc12 (stereo not given) | inactive
13 | NC(=O)c1c(NC(=O)Cc2ccc(Cl)cc2)sc2c1CCC2 | inactive
17 | Cn1c2c(c(=O)n(C)c1=O)C(c1ccc(Cl)cc1)C1=C(N2)c2ccccc2C1=O (stereo not given) | inconclusive: 24%
31 | Cc1nc(N=C(N)NC(=O)COc2ccc(Cl)cc2)nc2ccccc12 | inconclusive: 20%
37 | COc1cc(/C=C/c2ccc3cccc(O)c3n2)cc(Cl)c1OC | active: 34%
47 | COc1ccc2cc3cc(C(=O)Nc4ccc(OC)c(Cl)c4)oc3nc2c1 | active: 31%

Additional entries:

Row | Compound | inhibition
49 | CCCCOc1ccc(S(=O)(=O)n2cnc3cc(C)c(C)cc32)cc1 | inconclusive: 12%
50 | Cc1nc2c(C(=O)N3CCCN(CC4CC4)C(C(C)C)C3)cccc2[nH]1 (stereo not given) | inconclusive: 15%
51 | C=CCn1c(SCC(=O)OC)nc2sc3c(c2c1=O)CCCC3 | inconclusive: 26%
52 | CCOCCCNC(=O)c1cc(=O)[nH]c2ccc(S(=O)(=O)N3CCCCC3C)cc12 (stereo not given) | inconclusive: 12%
53 | Cc1noc2ncnc(NCc3cccnc3N(C)C3CCCCC3)c12 | inactive
54 | Nc1ncc(Cc2cccc([N+](=O)[O-])c2)s1 | inconclusive: 11%
55 | CC(=O)Nc1ccc(CN(Cc2ccco2)C(C)C(C)C)cc1 (stereo not given) | inactive
56 | CCCNC(=O)NCCc1nc2cccnc2n1C1CCCCC1 | inconclusive: 15%
57 | CC(C)Oc1ccc(C2CC(=O)NC2=O)cc1 (stereo not given) | inconclusive: 13%
58 | O=C(CC[C@@H]1CNC(=O)[C@@H]2C[C@H](NC(=O)Nc3ccsc3)CN12)Nc1ccccc1 | inconclusive: 10%
59 | O=C(O)CCC(=O)N1CCc2cc(S(=O)(=O)N3CCCCCC3)ccc21 | inconclusive: 15%
60 | O=[N+]([O-])c1ccc(NS(=O)(=O)c2ccc(Br)cc2)cc1 | inactive
61 | Cc1nc2nc(SCC(=O)N3CCOCC3)nn2c(C)c1Cc1ccccc1Cl | inconclusive: 20%
62 | CCOc1ccc(-c2n[nH]c(C)c2-c2ccc(F)cc2)c(O)c1 | inconclusive: 10%
63 | COc1cc(C(=O)Nc2ccc([N+](=O)[O-])cn2)cc(OC)c1OC | inconclusive: 12%
64 | O=C(CSCC(=O)c1ccc2c(c1)Cc1ccccc1-2)Nc1ccccc1 | inactive
65 | CCN1/C(=C2/N=C(c3ccccc3)OC2=O)C=Cc2ccccc21 | active: 56%
66 | COc1cc(C(=O)ON2C(=O)CCC2=O)cc(OC)c1OC | inactive
67 | C=CCN1C(=O)S/C(=C/c2ccc(N3CCCC3)o2)C1=O | active: 44%
68 | Cc1csc(SCC(=O)N2CCc3c(cc(-c4csc5ccccc45)c(=O)n3C)C2)n1 | inconclusive: 13%
69 | Cc1csc(SCC(=O)N2CCC(CCC(=O)Nc3ccccc3)CC2)n1 | inconclusive: 17%
70 | O=C(Nc1ccc(S(=O)(=O)Nc2nccs2)cc1)c1cnc2n(c1=O)CCS2 | inconclusive: 20%
71 | O=S(=O)(c1ccc(-c2ccno2)s1)N1C[C@H]2CC=CC[C@H]2C1 | inactive
72 | Cc1cc(Cl)nc(Cl)c1C(=O)NC(=O)Nc1ccc(F)cc1 | inactive

Row | Compound | inhibition
73 | Cc1ccc(-c2csc(=Nc3ccccc3)n2CCCN(C)C)cc1 | active: 62% and active: 42%
74 | CC(=O)c1ccc(C(=O)Nc2nc3c(s2)CCCC3)cc1 | inconclusive: 13%
75 | COc1ccc(C2C([N+](=O)[O-])=C(N)Oc3cc(C)oc(=O)c32)cc1OC (stereo not given) | inconclusive: 25%
76 | CC(c1ccncn1)N(C)C(=O)c1cn(-c2ccccc2)nn1 (stereo not given) | inconclusive: 15%
77 | O=C1c2ccc([N+](=O)[O-])cc2C(=O)N1CNc1ccc2c(c1)oc1ccccc12 | inactive
78 | CCCCNC(=O)CSC1=Nc2ccccc2C2=NC(Cc3ccccc3)C(=O)N12 (stereo not given) | inconclusive: 12%
79 | O=C(CCCn1c(=O)[nH]c2ccc(Br)cc2c1=O)NCCC1=CCCCC1 | inactive
80 | Cn1c(C(=O)N(CCc2ccccc2)Cc2ccccc2)cc2c(=O)n3ccccc3nc21 | inconclusive: 14%
81 | CCCCN(CC)C(=O)c1cc2c(=O)n3cccc(C)c3nc2n1C | inconclusive: 13%
82 | O=C(CCC1CCCN(C2CCSCC2)C1)Nc1ccccc1F (stereo not given) | inconclusive: 16%
83 | Cc1cc2c3c([nH]c2cc1S(=O)(=O)NCCc1ccc(S(N)(=O)=O)cc1)CC(C)(C)CC3=O | inactive
84 | CCOc1ccc(C(=O)Nc2ccc3c(c2)oc2ccccc23)cc1 | inconclusive: 10%
85 | O=S(=O)(Cc1ccc(Cl)cc1)c1c[nH]c2ccccc12 | inactive
86 | C=CCNC(=O)N[C@H]1[C@H](O)[C@@H](N(C)CCc2ccccn2)[C@@H]2OC[C@H]1O2 | inconclusive: 27%
87 | Nc1ccc(C(=O)c2ccc3c(c2)OCCO3)cc1N | inconclusive: 17%
88 | COc1ccc(C2=NN(C(=O)CCC(=O)O)C(c3ccccc3F)C2)cc1 (stereo not given) | inconclusive: 13%
89 | Cc1ccc(Nc2cc(C)nc(Nc3ccc(NC(=O)C4CCCCC4)cc3)n2)cc1 | active: 30%
90 | COC(=O)[C@]1(C)N[C@H](c2cnn(-c3ccccc3C)c2)[C@@H]2C(=O)N(C)C(=O)[C@@H]21 | inconclusive: 14%
91 | Cc1cc(C)cc(C(=O)N(c2ccc(F)cc2)C2C=CS(=O)(=O)C2)c1 (stereo not given) | inactive
92 | CC1=C(C(=O)OCCOc2ccccc2)C(c2cccc3ccccc23)NC(=O)N1 (stereo not given) | inactive
93 | O=C1c2ccccc2C(Nc2ccc(S(=O)(=O)N3CCCCC3)cc2)N1Cc1ccccc1 (stereo not given) | inconclusive: 10%
94 | O=C(c1ccc(S(=O)(=O)N2CCCC2)cc1)N1CCN(C/C=C/c2ccccc2)CC1 | inactive
95 | CC(C)CNc1nc2c(c(=O)n(C)c(=O)n2C)n1Cc1c(F)cccc1Cl | inactive
